# PubChem BioAssay AID1671195 | Yale University | 2021
# Purpose: 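Genes whose knockdown alters LDL uptake in liver cancer cells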 (primary screen)
# Cells: human Huh7 hepatoma cells
# Reagent: siRNA pool against human genes, 18 nM
# Duration: about 2 to 2.5 days of knockdown, then 8 h LDL uptake
# Conditions: DiI-labelled LDL at 30 µg/ml for 8 h, in lipoprotein-deficient serum medium
# Measurement: 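Per-cell DiI-LDL intensity by automated imaging; well means scaled to the plate median and given as a robust z-score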
# Reading the numbers: robust z-score: higher = more LDL uptake after knockdown
# Active means: 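a gene counts as active if at least two replicate z-scores exceed ±2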
# Shown is a random part of about 22,000 reagents. About 1,510 of them (6.9%) were called active. 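Active includes knockdowns raising or lowering LDL uptake; positive z-scores mean more uptake, negative mean less.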 Entries without a mark were called inactive. The numbers tell different reagents against one gene apart.
gene,pool no.,"robust z-score, replicate 1","robust z-score, replicate 2","robust z-score, replicate 3"
RAB39B (GeneID 116442),1,0.763,-0.264,-0.418
DOK7 (GeneID 285489),1,-0.905,-0.441,-0.8
TEKT1 (GeneID 83659),1,-1.6,-1.29,-0.118
PYGL (GeneID 5836),1,-0.22,0.0583,0.194
LOC441832 (retired record) (GeneID 441832),1,-0.301,-0.406,-0.556
FOXI3 (GeneID 344167),1,0.144,-0.187,-0.0771
TBX4 (GeneID 9496),1,1.14,0.924,0.879
FSTL3 (GeneID 10272),1,-2.34,-1.52,0.548
TSPAN17 (GeneID 26262),1,-0.47,-0.89,-0.0319
SAGE2P (GeneID 644717),1,0.552,0.203,0.316
HEXA (GeneID 3073),1,-0.441,-0.0311,-0.313
CCDC9 (GeneID 26093),1,-1.4,-0.367,0.214
HFE (GeneID 3077),1,2.19,-0.0762,-2.73
SIGLEC10 (GeneID 89790),1,-0.208,-1.41,-0.016
RTF2 (GeneID 51507),1,-1.95 (active),-0.397,-2.44
PABIR1 (GeneID 116224),1,-0.316,-0.0584,0.0478
STAMBPL1 (GeneID 57559),1,0.999,0.679,1.32
DEPDC4 (GeneID 120863),1,0.194,0.464,-0.104
LINC00640 (GeneID 283553),1,-0.586,-0.0715,-0.444
ZNF23 (GeneID 7571),1,0.0475,0.251,0.171
LIMCH1 (GeneID 22998),1,0.652,0.231,0.508
LOC441503 (retired record) (GeneID 441503),1,0.199,0.158,0.258
MTAP (GeneID 4507),1,-0.0208,-0.487,-0.369
HDAC3 (GeneID 8841),1,1.02,1.11,0.557
MRPS28 (GeneID 28957),1,0.805,-0.822,1.56
IGFL3 (GeneID 388555),1,-1.02,-0.957,-0.965
JDP2 (GeneID 122953),1,0.472,0.0829,0.22
CPT1B (GeneID 1375),1,0.246,-0.121,-0.164
LOC401732 (retired record) (GeneID 401732),1,-0.556,-0.625,0.412
LOC388466 (retired record) (GeneID 388466),1,1.02,0.849,1.28
RHOBTB1 (GeneID 9886),1,-0.364,2.89,0.914
TNIP1 (GeneID 10318),1,-0.493,0.15,0.826
HSD3B1 (GeneID 3283),1,0.662,-0.637,0.368
PLAAT1 (GeneID 57110),1,0.469,-0.392,-0.255
SLC46A1 (GeneID 113235),1,-0.0271,0.392,-1.37
LOC442407 (retired record) (GeneID 442407),1,-1.51,-1.04,-1.26
EEF1E1 (GeneID 9521),1,-0.136,-0.189,0.71
REX1BD (GeneID 55049),1,-0.537,-1.57,0.824
USP18 (GeneID 11274),1,-1.03,-1.21,-1.12
LYRM2 (GeneID 57226),1,2.04,1.54,0.24
FAU (GeneID 2197),1,-0.473,1.04,0.0224
RPLP2P1 (GeneID 442175),1,0.976,0.315,0.835
LOC387649 (retired record) (GeneID 387649),1,-0.407,-0.604,-0.0991
INTS8 (GeneID 55656),1,-0.77,0.00497,-1.49
SLC6A12 (GeneID 6539),1,-0.308,-0.704,-0.552
DSCR8 (GeneID 84677),1,3.29 (active),2.05,3.09
LSM6 (GeneID 11157),1,-0.743,-0.517,-0.412
SNTN (GeneID 132203),1,-1.47,-1.15,0.16
C1orf141 (GeneID 400757),1,-0.882,-1.01,-0.919
MYOD1 (GeneID 4654),1,0.199,0.585,0.848
PRRG3 (GeneID 79057),1,-0.638,-0.616,-0.192
LOC391298 (retired record) (GeneID 391298),1,0.156,0.761,0.608
TALDO1 (GeneID 6888),1,0.0789,-0.266,-0.0123
HNRNPA3 (GeneID 220988),1,-0.316,-0.231,-0.752
PCSK5 (GeneID 5125),1,-1.29,-0.0181,-0.675
LOC283034 (retired record) (GeneID 283034),1,1.53,1.44,1.6
LRSAM1 (GeneID 90678),1,-0.611,-0.315,-0.54
SLC22A5 (GeneID 6584),1,0.812,1.44,1.65
GJD3 (GeneID 125111),1,-0.687,-0.501,-0.327
RAB40A (GeneID 142684),1,0.679,-0.602,-0.561
ZNF473 (GeneID 25888),1,-0.169,-0.0123,0.374
GCAT (GeneID 23464),1,1.06,1.98,1.18
EIF2AK4 (GeneID 440275),1,2.36,1.83,1.05
C15orf32 (GeneID 145858),1,-0.224,0.647,-0.333
PAGE1 (GeneID 8712),1,-1.1,-0.73,0.72
CCDC57 (GeneID 284001),1,-0.046,-0.209,0.524
CCDC57 (GeneID 284001),2,-0.84,-1.51,-1.35
TANC2 (GeneID 26115),1,-1.52,-0.765,-1.69

An excerpt from above, showing only “robust z-score, replicate 2”:
JDP2 (GeneID 122953)	0.0829
CPT1B (GeneID 1375)	-0.121
LOC401732 (retired record) (GeneID 401732)	-0.625
LOC388466 (retired record) (GeneID 388466)	0.849
RHOBTB1 (GeneID 9886)	2.89
TNIP1 (GeneID 10318)	0.15
HSD3B1 (GeneID 3283)	-0.637
PLAAT1 (GeneID 57110)	-0.392
